According to ChEMBL document CHEMBL2010679, “Development of a new class of aromatase inhibitors: design, synthesis and inhibitory activity of 3-phenylchroman-4-one (isoflavanone) derivatives” (Bioorg Med Chem, 2012):

Target: T1, Aromatase (Homo sapiens, UniProt P11511)
T1 sequence (P11511 whole entry): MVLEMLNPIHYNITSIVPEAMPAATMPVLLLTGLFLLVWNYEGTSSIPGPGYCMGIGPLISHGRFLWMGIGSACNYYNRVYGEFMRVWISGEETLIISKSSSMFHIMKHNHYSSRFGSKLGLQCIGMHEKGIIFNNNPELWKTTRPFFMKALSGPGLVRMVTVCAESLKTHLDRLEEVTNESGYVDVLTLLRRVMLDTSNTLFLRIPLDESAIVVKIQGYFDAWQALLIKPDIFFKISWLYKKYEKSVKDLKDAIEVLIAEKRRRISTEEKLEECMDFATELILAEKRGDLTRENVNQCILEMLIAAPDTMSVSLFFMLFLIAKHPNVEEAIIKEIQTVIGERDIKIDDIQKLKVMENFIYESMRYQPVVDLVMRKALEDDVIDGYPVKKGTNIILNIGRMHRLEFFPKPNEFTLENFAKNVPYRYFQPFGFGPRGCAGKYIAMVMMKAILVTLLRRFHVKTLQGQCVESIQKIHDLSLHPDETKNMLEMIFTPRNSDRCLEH

IC50: 12 nM
Structure (SMILES): CC(C)(C#N)c1cc(Cn2cncn2)cc(C(C)(C)C#N)c1 [ANASTROZOLE]
